From patent US20240287184A1
These are yes or no findings as the source states them, for the method shown. Some results given as binding are weak or reduced against the parent protein; the word gives no strength.

The chains behind the UniProt entries cited, without tags or fusion partners. Residues count along the entry.
UniProt Q15116, residues 25-167: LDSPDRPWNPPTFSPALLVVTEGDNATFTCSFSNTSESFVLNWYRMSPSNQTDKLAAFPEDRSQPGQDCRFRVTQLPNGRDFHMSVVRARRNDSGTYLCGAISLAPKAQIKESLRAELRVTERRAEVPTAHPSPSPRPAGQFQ

Legend:
[1] = biological target: PD-1-his (ACRO) recombinant protein (UniProt Q15116); test: BLI (ForteBio Octet), compared with PD-1-112-C2 and Opdivo
[2] = biological target: PD-1-his (ACRO) recombinant protein (UniProt Q15116); test: BLI (ForteBio Octet), PD-1-his loaded on sensor

binding [1] | binding [2] | Binder
binds | binds | anti-PD-1 humanized antibody c22 (antibody, V domains shown) VH: QVQLVQSGAEVKKPGASVKVSCKASGYTFTTYYMYWVRQAPGQGLEWMGGINPSNGGTNFNEKFKSRVTMTVDKSTSTAYMELSSLRSEDTAVYYCTRRDSNYDGGFDYWGQGTTVTVSS VL: DIQLTQSPSSLSASVGDRATITCRASKSVSTSGYSYMHWYQQKPGKAPKLLIYLAYHLESGVPSRFSGSGSGTDFTLTISSVQPEDFATYYCQHSWELPITFGQGTKLEIKR
binds | binds | anti-PD-1 humanized antibody c43 (antibody, V domains shown) VH: QVQLVQSGAEVKKPGASVKVSCKASGYTFTTYYMYWVRQAPGQGLEWIGGINPSNGGTNYAEKFKGRVTLTVDTSTSTAYMELSSLRSEDTAVYYCTRRDSNYDGGFDYWGQGTTVTVSS VL: DIQMTQSPSSLSASVGDRVTITCRASKSVSTSGYSYMHWYQQKPGKAPKLLIYLAYHLESGVPSRFSGSGSGTDFTLTISSLQPEDFATYYCQHSWELPITFGQGTKLEIKR
binds | binds | anti-PD-1 humanized antibody c53 (antibody, V domains shown) VH: QVQLVQSGAEVKKPGASVKVSCKASGYTFTTYYMYWVRQAPGQGLEWMGGINPSNGGTNYAQKFQGRATMTVDTSTSTAYMELSSLRSEDTAVYYCTRRDSNYDGGFDYWGQGTTVTVSS VL: DIQMTQSPSSLSASVGDRVTITCRASKSVSTSGYSYMHWYQQKPGKAPKLLIYLAYHLESGVPSRFSGSGSGTDFTLTISSLQPEDFATYYCQHSWELPITFGQGTKLEIKR
